Laboratory results: patent US8232243B2, “Tyrosine- and tryptophan-containing peptides as antioxidants” (Max-Planck-Gesellschaft zur Forderung der Wissenschaften …, priority 1999, dated 2012)
For at least one compound, name, drawing or mass did not settle the structure.

Test system: B-phycoerythrin from Porphyrium cruentum
Assay: peroxy free radical trapping test (protection of B-phycoerythrin from destruction by peroxy free radicals)
Format: biochemical
Details: B-phycoerythrin 10 nM, 2,2'-azobis-2-methylpropionamidine 500 μM, 37° C.; peptide 20 nM to 20 μM
Experimental: The ability of peptides to protect the globular protein B-phycoerythrin from destruction by peroxy free radicals was tested. This was done by oxidizing B-phycoerythrin from Porphyrium cruentum (10 nM) in phosphate-buffered saline solution using 2,2′-azobis-2-methylpropionamidine (500 μM) at 37° C. as source of peroxy free radicals. Destruction of the protein was measured by observing the decrease in the protein fluorescence with increasing incubation time (flash fluorimetry, excitation window 340±50 nm, emission window 572±6 nm) . The results of this experiment for the secretory peptides GnRH (human) and for the synthetic peptides WY, WGGGY, WW and YY are shown in FIG. 1A. The meanings in the individual diagrams are • the control and ⋄ a concentration of 20 nM, ∘ 200 nM, ▾ 2 μM and ∇ 20 μM of the particular peptide (quadruplicate determinations) .
The results are shown in FIG. 2. • means the control, ∘ means a concentration of 200 nM, ▾ means a concentration of 2 μM and ∇ means a concentration of 20 μM of the particular peptide (quadruplicate determinations).
Experiments were carried out to test the antioxidant effect of other substances in the peroxy free radical trapping test described in example 1. The results are shown in FIG. 3 (see FIG. 1A for explanation) .

Structure (SMILES): C[C@@H](NC(=O)[C@@H](N)Cc1ccc(O)cc1)C(=O)N[C@@H](Cc1ccccc1)C(=O)NCC(=O)N[C@@H](Cc1ccc(O)cc1)C(=O)N1CCC[C@H]1C(=O)N[C@@H](CO)C(N)=O [dermorphin, Y^D-AFGY PS-amide]
- antioxidant effect in trapping peroxy free radicals (decrease in B-phycoerythrin fluorescence): Analogous results
